Source: paper PMC4008574 (PLoS ONE, 2014)
These are yes or no findings as the source states them, for the method shown. Some entries that bind do so weakly or less than the wild type.

The chains behind the UniProt entries cited, without tags or fusion partners. Where a name states a change or a piece, a line headed by the entry shows the natural chain unless it says otherwise. Residues count along the entry.
UniProt Q13444, residues 421-508: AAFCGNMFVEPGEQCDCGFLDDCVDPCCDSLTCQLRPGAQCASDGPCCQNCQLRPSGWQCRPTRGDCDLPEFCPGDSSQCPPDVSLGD
UniProt P06756: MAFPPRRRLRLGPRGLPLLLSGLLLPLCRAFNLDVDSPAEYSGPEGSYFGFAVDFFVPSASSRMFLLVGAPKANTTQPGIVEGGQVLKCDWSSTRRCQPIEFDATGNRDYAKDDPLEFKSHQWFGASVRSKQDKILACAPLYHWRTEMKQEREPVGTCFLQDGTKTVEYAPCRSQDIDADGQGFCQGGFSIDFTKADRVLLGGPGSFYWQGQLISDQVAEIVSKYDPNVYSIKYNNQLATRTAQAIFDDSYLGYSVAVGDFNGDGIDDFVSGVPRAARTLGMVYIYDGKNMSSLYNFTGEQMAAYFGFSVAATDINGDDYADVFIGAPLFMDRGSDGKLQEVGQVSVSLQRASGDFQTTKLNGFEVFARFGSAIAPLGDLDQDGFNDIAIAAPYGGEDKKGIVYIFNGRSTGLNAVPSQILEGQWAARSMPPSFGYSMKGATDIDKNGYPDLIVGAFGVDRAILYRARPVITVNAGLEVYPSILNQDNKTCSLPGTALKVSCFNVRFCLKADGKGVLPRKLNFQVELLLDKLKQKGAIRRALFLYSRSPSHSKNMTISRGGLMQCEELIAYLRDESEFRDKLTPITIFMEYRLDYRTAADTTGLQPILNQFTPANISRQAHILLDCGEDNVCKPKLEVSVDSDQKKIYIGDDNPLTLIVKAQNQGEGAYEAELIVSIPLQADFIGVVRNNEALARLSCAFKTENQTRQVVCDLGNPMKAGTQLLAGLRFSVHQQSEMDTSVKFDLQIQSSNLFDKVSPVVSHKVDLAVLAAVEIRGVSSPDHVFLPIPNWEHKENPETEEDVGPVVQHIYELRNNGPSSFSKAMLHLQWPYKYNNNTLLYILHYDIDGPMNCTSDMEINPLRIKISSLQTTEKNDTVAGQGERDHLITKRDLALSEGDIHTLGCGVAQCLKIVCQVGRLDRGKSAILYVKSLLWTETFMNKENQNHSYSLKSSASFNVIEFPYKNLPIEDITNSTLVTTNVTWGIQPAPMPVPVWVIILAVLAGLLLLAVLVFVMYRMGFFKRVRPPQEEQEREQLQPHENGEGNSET

Legend:
[1] = biological target: disintegrin domain of ADAM-15 (GST fusion protein) (UniProt Q13444); assay: cell adhesion assay; FN8-11, ADAM-15 or VCAM-1 coated on wells; K562, αvβ3-K562 or α4-K562 cells in RPMI 1640 added, 1 h at 37°C, with or without FKN-CD; bound cells quantified by endogenous phosphatase activity; only the target purified
[2] = biological target: disintegrin domain of ADAM-15 (GST fusion protein) (UniProt Q13444); assay: ELISA; γC399tr or ADAM-15 coated on wells; soluble αvβ3 (5 µg/ml) added with or without FKN-CD (WT or K36E/R37E) in HEPES-Tyrodes buffer with 1 mM CaCl2, 2 h at room temperature; bound αvβ3 detected with anti-β3 mAb AV-10; both purified

Row | binding [1] | binding [2] | Substance
1 | binds | – | human integrin αvβ3 on K562 cells (αvβ3-K562) (from UniProt P06756 31-1048; P05106 27-788) (receptor)
2 | – | binds | recombinant soluble integrin αvβ3 (from UniProt P06756 31-987; P05106 27-718) (receptor)
